Data as given in PMC4714748.

T1: WDR76-3XFLAG (Neurospora crassa) (UniProt Q7S1H9)
T1 sequence: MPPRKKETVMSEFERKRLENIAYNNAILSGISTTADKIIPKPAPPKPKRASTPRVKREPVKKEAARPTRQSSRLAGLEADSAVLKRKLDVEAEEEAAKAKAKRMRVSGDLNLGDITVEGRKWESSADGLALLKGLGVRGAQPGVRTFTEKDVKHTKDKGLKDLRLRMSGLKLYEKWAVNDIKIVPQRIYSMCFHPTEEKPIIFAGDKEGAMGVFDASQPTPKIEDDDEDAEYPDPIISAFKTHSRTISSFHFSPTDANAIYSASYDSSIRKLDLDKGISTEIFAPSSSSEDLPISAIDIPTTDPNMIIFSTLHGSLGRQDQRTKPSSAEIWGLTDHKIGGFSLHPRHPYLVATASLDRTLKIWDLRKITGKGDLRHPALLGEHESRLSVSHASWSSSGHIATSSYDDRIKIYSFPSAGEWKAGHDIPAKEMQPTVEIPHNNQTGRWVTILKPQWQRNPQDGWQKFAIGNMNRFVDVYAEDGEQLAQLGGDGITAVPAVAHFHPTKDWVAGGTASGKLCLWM


Columns and labels:
[1] = target: T1, WDR76-3XFLAG (Neurospora crassa); assay: affinity purification with mass spectrometry; WDR76-3XFLAG purified on M2 FLAG affinity gel from N. crassa extracts; extraction buffer with 200 mM NaCl and, separately, with 250 mM KCl
[2] = target: MUS-30-3XFLAG (Neurospora crassa) (UniProt Q7SAC4); assay: affinity purification with mass spectrometry; MUS-30-3XFLAG purified on M2 FLAG affinity gel from N. crassa extracts; extraction buffer 50 mM HEPES-KOH pH 7.6, 2 mM EDTA, 10% glycerol, 2 mM DTT with 150 mM or 200 mM NaCl; hits also found in the mock, DIM-5-3XFLAG or DIM-9-3XFLAG samples were …
[3] = target: MUS-30-3XFLAG (Neurospora crassa) (UniProt Q7SAC4); assay: affinity purification with mass spectrometry; MUS-30-3XFLAG purified on M2 FLAG affinity gel from N. crassa extracts; extraction buffer 50 mM HEPES-KOH pH 7.6, 2 mM EDTA, 10% glycerol, 2 mM DTT with 250 mM KCl

| binding [1] | binding [2] | Molecule | binding [3] |
| --- | --- | --- | --- |
| binds |  | MUS-30 (enzyme) |  |
|  | binds | WDR76 (NCU09302) (protein, UniProt Q7S1H9 1-521) MPPRKKETVMSEFERKRLENIAYNNAILSGISTTADKIIPKPAPPKPKRASTPRVKREPVKKEAARPTRQSSRLAGLEADSAVLKRKLDVEAEEEAAKAKAKRMRVSGDLNLGDITVEGRKWESSADGLALLKGLGVRGAQPGVRTFTEKDVKHTKDKGLKDLRLRMSGLKLYEKWAVNDIKIVPQRIYSMCFHPTEEKPIIFAGDKEGAMGVFDASQPTPKIEDDDEDAEYPDPIISAFKTHSRTISSFHFSPTDANAIYSASYDSSIRKLDLDKGISTEIFAPSSSSEDLPISAIDIPTTDPNMIIFSTLHGSLGRQDQRTKPSSAEIWGLTDHKIGGFSLHPRHPYLVATASLDRTLKIWDLRKITGKGDLRHPALLGEHESRLSVSHASWSSSGHIATSSYDDRIKIYSFPSAGEWKAGHDIPAKEMQPTVEIPHNNQTGRWVTILKPQWQRNPQDGWQKFAIGNMNRFVDVYAEDGEQLAQLGGDGITAVPAVAHFHPTKDWVAGGTASGKLCLWM | no binding (only in buffer containing 250 mM KCl) |

These are yes or no findings as the source states them, for the method shown. Binding seen in cells or lysates may run through a third protein. Here binding means that the protein was enriched with, or labelled near, the bait; the list need not be complete. For part of these data: A no says only that the protein was not detected with the bait. For part of these data: Sequences can lack the tags named with a protein.
